Measurements: publication PMC10777651
No constants are given. Whether binding was seen depends on the method and setting. Binding seen in cells or lysates may run through a third protein. A yes stands for co-enrichment or nearness to the bait. Other partners may have been found. A no says only that the protein was not detected with the bait. Tags and fused reporters may be left off the sequences shown.

Chains of the proteins cited; added tags and fusions are not shown.
UniProt A0A509AQW2: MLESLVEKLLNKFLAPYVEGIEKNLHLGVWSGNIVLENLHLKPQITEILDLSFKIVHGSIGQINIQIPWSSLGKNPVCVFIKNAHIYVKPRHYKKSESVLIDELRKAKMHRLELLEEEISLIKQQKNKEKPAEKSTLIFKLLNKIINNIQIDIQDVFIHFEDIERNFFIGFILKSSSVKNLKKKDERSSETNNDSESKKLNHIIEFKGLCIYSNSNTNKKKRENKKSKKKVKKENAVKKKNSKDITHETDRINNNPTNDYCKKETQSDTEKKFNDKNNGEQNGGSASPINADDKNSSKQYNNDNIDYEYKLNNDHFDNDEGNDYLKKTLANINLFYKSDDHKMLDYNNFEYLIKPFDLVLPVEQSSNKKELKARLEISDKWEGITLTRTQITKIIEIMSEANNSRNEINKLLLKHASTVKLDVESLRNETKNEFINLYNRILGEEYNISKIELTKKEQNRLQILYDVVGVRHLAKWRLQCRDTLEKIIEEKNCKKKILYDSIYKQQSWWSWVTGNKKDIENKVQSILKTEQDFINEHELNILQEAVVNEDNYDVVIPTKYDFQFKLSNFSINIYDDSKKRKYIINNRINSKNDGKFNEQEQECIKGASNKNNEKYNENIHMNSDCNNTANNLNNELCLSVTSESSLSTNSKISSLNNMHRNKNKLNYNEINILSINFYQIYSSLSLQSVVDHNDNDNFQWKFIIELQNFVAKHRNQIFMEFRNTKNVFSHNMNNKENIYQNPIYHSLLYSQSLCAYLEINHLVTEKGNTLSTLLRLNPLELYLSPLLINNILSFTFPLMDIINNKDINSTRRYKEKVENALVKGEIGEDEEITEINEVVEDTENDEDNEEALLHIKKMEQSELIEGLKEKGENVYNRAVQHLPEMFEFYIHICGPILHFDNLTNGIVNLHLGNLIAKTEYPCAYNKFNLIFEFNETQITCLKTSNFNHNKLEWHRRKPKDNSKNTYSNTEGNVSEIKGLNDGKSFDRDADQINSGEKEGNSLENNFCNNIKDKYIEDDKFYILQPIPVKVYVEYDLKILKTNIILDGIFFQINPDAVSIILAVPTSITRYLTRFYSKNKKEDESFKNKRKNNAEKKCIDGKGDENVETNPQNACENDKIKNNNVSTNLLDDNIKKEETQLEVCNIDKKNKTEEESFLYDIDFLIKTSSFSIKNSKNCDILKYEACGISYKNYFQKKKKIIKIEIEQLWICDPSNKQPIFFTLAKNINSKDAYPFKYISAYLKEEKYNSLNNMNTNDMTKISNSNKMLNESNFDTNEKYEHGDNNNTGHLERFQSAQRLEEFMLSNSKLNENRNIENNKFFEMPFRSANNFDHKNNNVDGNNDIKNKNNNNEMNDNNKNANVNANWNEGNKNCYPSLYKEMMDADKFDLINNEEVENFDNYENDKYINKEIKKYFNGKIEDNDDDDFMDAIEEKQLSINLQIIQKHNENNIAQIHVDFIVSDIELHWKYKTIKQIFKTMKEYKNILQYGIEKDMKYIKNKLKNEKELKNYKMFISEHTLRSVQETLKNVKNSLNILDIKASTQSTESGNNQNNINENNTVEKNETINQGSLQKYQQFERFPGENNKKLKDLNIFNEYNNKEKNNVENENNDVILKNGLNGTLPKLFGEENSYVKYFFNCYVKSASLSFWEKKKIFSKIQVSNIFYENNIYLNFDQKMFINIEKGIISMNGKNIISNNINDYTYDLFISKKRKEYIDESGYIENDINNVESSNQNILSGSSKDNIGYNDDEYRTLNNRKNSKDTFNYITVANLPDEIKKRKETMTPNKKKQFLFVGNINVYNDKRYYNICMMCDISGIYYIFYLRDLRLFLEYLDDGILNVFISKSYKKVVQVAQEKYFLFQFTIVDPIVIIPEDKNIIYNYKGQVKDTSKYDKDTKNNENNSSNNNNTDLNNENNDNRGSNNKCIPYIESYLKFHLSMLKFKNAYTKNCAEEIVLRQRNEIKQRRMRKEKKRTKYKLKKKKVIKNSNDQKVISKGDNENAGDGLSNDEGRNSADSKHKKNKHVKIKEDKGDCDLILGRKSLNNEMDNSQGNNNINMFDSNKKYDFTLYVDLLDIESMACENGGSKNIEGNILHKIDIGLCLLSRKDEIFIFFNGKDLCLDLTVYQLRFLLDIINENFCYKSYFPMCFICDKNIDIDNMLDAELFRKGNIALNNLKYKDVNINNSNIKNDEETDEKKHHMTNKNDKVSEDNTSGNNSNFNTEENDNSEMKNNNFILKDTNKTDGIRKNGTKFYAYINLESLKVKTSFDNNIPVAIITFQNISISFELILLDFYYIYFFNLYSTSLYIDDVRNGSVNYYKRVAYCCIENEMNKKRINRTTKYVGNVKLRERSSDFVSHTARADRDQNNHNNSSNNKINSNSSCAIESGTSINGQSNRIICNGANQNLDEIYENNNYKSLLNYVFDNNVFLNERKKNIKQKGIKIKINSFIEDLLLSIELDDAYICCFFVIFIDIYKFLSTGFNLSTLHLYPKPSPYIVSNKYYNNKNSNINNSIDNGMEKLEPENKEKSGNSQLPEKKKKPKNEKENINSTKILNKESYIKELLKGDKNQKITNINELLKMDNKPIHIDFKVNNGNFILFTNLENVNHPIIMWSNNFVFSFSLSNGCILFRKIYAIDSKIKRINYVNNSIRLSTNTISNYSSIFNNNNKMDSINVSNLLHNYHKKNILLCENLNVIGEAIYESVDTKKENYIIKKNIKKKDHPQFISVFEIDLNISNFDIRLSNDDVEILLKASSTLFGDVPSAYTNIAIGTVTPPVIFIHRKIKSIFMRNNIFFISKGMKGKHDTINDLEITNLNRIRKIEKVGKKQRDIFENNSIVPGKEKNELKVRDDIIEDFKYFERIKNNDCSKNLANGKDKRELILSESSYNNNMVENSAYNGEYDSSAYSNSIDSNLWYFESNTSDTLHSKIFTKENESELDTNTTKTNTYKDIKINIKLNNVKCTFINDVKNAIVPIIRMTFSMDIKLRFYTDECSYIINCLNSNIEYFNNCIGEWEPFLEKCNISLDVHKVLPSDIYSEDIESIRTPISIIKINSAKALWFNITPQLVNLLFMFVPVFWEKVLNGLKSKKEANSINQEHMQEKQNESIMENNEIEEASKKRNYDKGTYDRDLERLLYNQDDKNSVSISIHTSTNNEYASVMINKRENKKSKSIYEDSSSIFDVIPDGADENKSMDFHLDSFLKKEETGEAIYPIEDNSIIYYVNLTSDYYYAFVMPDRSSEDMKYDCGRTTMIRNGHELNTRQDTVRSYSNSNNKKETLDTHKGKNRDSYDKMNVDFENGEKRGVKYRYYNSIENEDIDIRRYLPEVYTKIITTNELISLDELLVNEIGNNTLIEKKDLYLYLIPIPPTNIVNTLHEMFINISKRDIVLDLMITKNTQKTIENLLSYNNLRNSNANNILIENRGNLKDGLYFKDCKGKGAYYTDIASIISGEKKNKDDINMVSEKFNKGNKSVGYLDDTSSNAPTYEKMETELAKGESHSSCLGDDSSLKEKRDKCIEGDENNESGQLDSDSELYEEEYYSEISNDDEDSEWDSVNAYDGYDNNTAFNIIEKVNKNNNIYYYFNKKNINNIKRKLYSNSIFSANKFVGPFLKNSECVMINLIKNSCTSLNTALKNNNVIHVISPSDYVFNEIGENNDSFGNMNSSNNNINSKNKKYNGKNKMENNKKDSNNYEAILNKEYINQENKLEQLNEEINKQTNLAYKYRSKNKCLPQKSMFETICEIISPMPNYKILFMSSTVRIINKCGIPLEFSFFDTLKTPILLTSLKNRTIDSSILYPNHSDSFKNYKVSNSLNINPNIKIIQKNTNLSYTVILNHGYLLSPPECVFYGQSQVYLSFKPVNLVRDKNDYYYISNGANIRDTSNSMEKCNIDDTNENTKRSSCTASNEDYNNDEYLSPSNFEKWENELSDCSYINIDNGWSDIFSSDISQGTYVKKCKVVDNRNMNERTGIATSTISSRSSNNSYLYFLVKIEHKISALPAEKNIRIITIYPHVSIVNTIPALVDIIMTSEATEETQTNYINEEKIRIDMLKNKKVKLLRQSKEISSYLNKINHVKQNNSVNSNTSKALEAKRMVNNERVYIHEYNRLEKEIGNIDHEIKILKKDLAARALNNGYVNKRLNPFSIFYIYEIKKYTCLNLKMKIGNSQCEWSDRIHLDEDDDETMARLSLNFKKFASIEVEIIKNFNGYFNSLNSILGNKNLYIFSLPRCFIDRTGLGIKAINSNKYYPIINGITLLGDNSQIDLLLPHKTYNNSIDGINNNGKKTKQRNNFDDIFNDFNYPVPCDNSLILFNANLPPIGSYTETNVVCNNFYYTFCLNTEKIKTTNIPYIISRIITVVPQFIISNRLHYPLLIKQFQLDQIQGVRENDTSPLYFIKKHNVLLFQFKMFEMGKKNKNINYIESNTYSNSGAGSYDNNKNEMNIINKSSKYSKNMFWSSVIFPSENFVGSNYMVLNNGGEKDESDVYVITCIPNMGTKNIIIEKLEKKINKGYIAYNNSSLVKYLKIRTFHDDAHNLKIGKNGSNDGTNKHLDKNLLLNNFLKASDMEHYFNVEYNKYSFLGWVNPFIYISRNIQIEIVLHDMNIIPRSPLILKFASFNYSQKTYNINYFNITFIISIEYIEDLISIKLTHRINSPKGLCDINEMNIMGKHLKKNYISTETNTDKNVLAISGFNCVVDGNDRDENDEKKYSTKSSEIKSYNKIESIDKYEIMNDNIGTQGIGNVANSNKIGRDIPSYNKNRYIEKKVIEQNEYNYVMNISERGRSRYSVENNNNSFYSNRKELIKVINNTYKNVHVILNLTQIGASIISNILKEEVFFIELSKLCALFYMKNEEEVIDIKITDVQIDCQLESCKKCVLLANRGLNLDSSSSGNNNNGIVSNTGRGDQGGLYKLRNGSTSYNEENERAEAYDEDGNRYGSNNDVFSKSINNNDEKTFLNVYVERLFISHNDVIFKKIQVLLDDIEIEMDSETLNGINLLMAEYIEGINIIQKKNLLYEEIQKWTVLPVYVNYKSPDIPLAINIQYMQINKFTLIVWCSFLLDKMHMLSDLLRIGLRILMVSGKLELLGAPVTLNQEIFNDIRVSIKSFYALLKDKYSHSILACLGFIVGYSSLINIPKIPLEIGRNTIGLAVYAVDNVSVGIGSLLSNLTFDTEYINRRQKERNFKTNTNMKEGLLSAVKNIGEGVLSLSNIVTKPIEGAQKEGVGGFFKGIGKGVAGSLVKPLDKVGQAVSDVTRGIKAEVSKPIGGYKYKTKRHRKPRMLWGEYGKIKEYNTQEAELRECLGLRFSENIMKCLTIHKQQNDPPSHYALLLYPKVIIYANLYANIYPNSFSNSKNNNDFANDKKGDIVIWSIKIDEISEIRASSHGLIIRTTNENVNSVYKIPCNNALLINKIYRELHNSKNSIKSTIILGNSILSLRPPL
UniProt A0A509APS9: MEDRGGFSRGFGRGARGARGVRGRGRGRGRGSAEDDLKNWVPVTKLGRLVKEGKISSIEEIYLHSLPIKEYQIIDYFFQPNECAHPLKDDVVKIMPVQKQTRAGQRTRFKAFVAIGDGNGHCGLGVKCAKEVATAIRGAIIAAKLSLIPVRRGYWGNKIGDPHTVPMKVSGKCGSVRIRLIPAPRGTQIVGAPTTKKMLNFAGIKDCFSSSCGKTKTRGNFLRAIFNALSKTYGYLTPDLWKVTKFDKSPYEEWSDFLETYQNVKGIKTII

T1: 1019700::mCherry (PBANKA_1019700, NTF2-like domain-containing protein, fused to mCherry) (Plasmodium berghei ANKA)
T1 sequence: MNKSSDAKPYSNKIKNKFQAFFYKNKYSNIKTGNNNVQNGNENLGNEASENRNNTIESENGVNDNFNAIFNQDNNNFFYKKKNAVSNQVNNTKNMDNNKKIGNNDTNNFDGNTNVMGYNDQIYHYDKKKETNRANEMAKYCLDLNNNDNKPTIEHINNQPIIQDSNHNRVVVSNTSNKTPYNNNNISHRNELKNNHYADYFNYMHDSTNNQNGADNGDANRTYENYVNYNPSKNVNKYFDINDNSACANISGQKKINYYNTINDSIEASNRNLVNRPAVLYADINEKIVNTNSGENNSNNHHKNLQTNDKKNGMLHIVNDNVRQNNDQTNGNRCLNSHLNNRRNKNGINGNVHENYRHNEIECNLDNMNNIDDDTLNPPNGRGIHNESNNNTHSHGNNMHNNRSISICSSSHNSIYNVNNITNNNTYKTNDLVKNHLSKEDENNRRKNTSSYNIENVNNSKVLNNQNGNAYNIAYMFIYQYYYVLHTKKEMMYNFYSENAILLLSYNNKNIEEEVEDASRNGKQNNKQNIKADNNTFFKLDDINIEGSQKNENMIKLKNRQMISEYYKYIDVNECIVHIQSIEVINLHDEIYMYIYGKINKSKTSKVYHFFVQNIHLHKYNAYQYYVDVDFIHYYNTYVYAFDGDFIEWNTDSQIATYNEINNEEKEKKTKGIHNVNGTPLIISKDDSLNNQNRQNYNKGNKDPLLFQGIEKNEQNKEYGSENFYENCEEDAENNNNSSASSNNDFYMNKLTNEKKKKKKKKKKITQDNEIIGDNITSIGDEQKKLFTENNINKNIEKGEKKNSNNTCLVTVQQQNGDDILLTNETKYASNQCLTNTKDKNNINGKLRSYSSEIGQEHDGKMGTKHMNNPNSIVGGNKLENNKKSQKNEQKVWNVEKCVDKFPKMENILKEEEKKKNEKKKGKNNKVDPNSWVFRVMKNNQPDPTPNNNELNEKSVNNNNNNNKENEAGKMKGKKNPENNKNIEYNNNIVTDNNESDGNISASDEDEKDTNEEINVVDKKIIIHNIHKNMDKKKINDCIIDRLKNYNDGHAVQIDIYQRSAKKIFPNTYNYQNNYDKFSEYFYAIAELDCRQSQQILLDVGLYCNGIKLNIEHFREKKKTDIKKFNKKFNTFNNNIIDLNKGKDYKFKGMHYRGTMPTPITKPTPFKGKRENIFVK

B1: PBANKA_0415500, coatomer subunit beta, putative (protein, UniProt A0A509AFQ6 1-999)
chain: MPLNLDIKKKLNSRIGKVKCVDIHENEPWILAALYNGKLIIFDYSNQNTIKNIEVSGYPLRCAKFIEKKQWIICTGDDMIIRVYNYNTFEKIIFFEGHSDYIRYIEVHQTLPYILTCSDDMSIKLYDYENNFEKLCSFENHVHYVMMCKFNPKDTYIFASASLDKTIKIWGVQNNMPVVTKPHFTLTGHIKGVNCIDYSSSGETSYIISGSDDKTIRVWDYHTKQCVHILSGHTQNISCLIYHSNLPIIISSSEDCNVKIWNSSMYKLETTLNYNMDKCWSICAKKTKNDLCIGYDEGLIVIQMGSDKPIYTMFKNKIIYIKNADIFIINLQNINNEDNYNDGDIYKVNKKELGNCDFYPTNVSFHPNGRFVCVSGHQEFNIYTSQVLRNKAYGKSPFFVWGNNGDYAIKDEGNKIVIYKEFTAFHSFQTPYNITELFGGYLLGVKSNNFICFYDWNYYNMIRKIDINVKNVYWNDSGTYVAISTEESVYILSYNTKDETSNKDMKCLEPNDNINMGEENGNIVDENNFELENEINEYIESGIWIYDSFVYVSRNLRLYIYTKKFNDIYVYIDKYLYICGYVYEYDRIFLLDTNYNFYSFHIPIAYLQYQKYIINKDFEFADNLLSTIPEYLHNKLSLFLEKMGYKNKALTICTDLEKKFELALSIGNLQLCIEIIKQIENKEDKATVQNKYKALGDTSLIYNDISMAIHCYKKTNDYSSLLIILSTLGDKIGIEELGKICLKNKKYNIAFICYFLLHKINKCVDILVKSKNYAYASFFSRIYKPSLLPNILLKWKNNLNKTYQISPIELLTPDKNPEYFPDYELAIKCESIFEKTQTLGVTQNYSTLKKLIDINIMDEINEIGYEQVENIFVKQFDIDLEKDVKNFDMINSLSSVQKKETTIKSINEIIDKEYVENKTDSNSSNLKRESFVSENNNTSFSNSHEINQNSNDSYKKNSKKTSNNSDNLANLNNSDENISFEMKNETFNSVNDQIDKESE
B2: PBANKA_1012800, voltage-dependent anion-selective channel protein, putative (protein, UniProt A0A509AQY7 1-289)
chain: MDFPKLLNKPSLDLIKNDFPHSNKFELEHISVSKQPFLKSGFTFSNNTYNIYTNFKNNVYNTKNELKFDNSGISLLDIKYEPNFVKNLNICGKYTKSNEKKEDSFEVYGEYTSENMSIFSSINVRNFFFKYIHVGSHPKCPNFKFGGMVQGDLDYKNLQYSLGGAYTKNYFDKQYIFSFRSLPTNKCLYGTVALNLFFQNKNINDNAVSIELLQNILEKKATINIASIWYLNDKNTAVKTKISNDTKVALSLTHKYNEFMTISLGSQVDITKMSLPDSSKFGIKLYLKS
B3: PBANKA_0823000, ubiquitin-like protein, putative (protein, UniProt A0A509AIS7 1-1384)
chain: MEEENIKIKVKSIDNQECEFCVKKNTTTEELKGMISEKKNVDINDIRLIYQGQCLSNTKTIAEYNIQNDHIIHLVIRKKENVNNSAYEKTNQFKNIDQDNNNNNYASSSTPINDPLQYGFASNINFNNVNNNGNTTDNNNRPFGNTTIPTTNIGGATPLYFTHMRLTRNDNLENDIMSQTNMCSLLNDIMSQVNINPNFIYGAAASAVNSVGSGENFFTANIRPNDANVNINEFRANKEKDANIASSPNVGNKQKDMDKDETEKESENISNEINCNDVEKSGEKGTNNNNNCGNVNSEHNKQKSEKQTNNKLPKEGKNREKKNNSSSSSSSENSSYEYNKNNKESDEDKKKKLKKKLKKKLKKKYMQKIRNKYSSDDKINKYNEKNLKKENINDIYSSSYNSNYESSYSENSDTKERELDDEKKKRHKNKILEKLRKKKEKKKKKKYYYSTNSSSDYDKIYEQNEKKKKKKRNKAKFIFDPNLLYNPNYMRNIYRGMYNPGQYPPYITNFNNGNSLRANTNFNNIFNNNSSVFRNIPYPYINGNDMNRSMFYYDQKCANISENENYVNFKDGMHDEYENIKGFVNKRFYKREELNTNDKKRIINMNKNKNISDANNNSEILFGSNFCNNNVHTGNRSMNDAQNLIKNSNDCFTGGILNGVTPQNSNNTTTTNNNVNSNNRNDYANIIPFSDVEIVRNNLVRTNSRGTLSQGGEELSENNLIDEHMRSIQMASNNIRHLRSTSKLLNDENDFEYKNIELNIPWRIMEQLLVLLEEETGYKRPNLSSYINSYYNTNSIYVFFNLFVHINNIINSIIIQFNHSNFLNNDISMSSFSRISIILSLASVIFSRLSNFFFVFYDNFYCNNYGRSYRYSEPINHEYLRELRNFYYSSNRNNNIRNSNISNFNYDPNNIFDNHRINPNKTNLQQEFEEYYKNYLSGIDINMNNNVLLRKDHKNFKTNNLDDNIFSQDNYITHYRFKNKHKLSNSFMDPKGNKYNNNKFTDLKNHLKTDKDWNTNNPFSTLQNYNKKHNPLLYISKKKKKGNKKNGEPTQKNDKDINKNPSICSSKNSHNNSSNFDNNKNNESEIKKFLEPNVVDSSTQNTKDKGNFMIDIFKNILKNEPEEKITENNINDKNCLKNTEKTNNNFPNTTLACYDNNMDDMYGTSDEEKDQTNNHIHIQSNIIPQKDSTNNPLFSEQNEKLQENNGKPNDEKNNSVDIQKNNQAVVNNLSIPNINFANILNDVQNQLATHKAPEAPQRDKFDGIPDKVKERYVNWTENTQIFSGQMIKICRNKRPLSYVYLGENSLNEDISYNNPLPFLWKKNMSNINASFDLEIPDELVEAFDMHILEYVQKSIKNNEDYKLEKFKYPNLSKCEEFFDEADKN

Biological target: T1, 1019700::mCherry (PBANKA_1019700, NTF2-like domain-containing protein, fused to mCherry) (Plasmodium berghei ANKA)
Assay: affinity purification with mass spectrometry; IP of 1019700::mCherry with RFP-Trap agarose (anti-mCherry beads) from extracts of schizont- and gametocyte-enriched cultures after 22 h of culturing; nanoLC-MS/MS; control: wild-type P. berghei ANKA; three independent experiments

Molecule | binding
PBANKA_0519900, conserved Plasmodium protein, unknown function (from UniProt A0A509AGW1 1-1591) | binds
PBANKA_0802300, HECT-type E3 ubiquitin ligase UT, putative (from UniProt A0A509AGE6 1-3439) | binds
PBANKA_0210600, ubiquitin carboxyl-terminal hydrolase, putative (from UniProt A0A509AEF7 1-2788) | binds
GBP2 (G-strand binding protein 2) of P. berghei | no binding
PBANKA_1359300, VPS13 domain-containing protein, putative (from UniProt A0A509AQW2 1-5434) | binds
PBANKA_1310800, 40S ribosomal protein S5, putative (from UniProt A0A509APS9 1-271) | binds
PBANKA_0207000, calcium-transporting ATPase, putative (from UniProt A0A509ADJ6 1-1120) | binds
PBANKA_1438300, phospholipid-transporting ATPase, putative (from UniProt A0A509B0P7 1-1603) | binds
PBANKA_0316200, Plasmodium exported protein, unknown function (from UniProt A0A509AHX0 1-1739) | binds
NAB2 (nuclear poly(A) binding protein 2) of P. berghei | no binding
B1 | binds
B2 | binds
B3 | binds
